Results taken from publication PMC10985112.
No constants are given. Whether binding was seen depends on the method and setting. In cells and extracts the contact can be indirect. Some results given as binding are weak or reduced against the parent protein; the word gives no strength.

Chains of the proteins cited; added tags and fusions are not shown.
UniProt Q4JK59: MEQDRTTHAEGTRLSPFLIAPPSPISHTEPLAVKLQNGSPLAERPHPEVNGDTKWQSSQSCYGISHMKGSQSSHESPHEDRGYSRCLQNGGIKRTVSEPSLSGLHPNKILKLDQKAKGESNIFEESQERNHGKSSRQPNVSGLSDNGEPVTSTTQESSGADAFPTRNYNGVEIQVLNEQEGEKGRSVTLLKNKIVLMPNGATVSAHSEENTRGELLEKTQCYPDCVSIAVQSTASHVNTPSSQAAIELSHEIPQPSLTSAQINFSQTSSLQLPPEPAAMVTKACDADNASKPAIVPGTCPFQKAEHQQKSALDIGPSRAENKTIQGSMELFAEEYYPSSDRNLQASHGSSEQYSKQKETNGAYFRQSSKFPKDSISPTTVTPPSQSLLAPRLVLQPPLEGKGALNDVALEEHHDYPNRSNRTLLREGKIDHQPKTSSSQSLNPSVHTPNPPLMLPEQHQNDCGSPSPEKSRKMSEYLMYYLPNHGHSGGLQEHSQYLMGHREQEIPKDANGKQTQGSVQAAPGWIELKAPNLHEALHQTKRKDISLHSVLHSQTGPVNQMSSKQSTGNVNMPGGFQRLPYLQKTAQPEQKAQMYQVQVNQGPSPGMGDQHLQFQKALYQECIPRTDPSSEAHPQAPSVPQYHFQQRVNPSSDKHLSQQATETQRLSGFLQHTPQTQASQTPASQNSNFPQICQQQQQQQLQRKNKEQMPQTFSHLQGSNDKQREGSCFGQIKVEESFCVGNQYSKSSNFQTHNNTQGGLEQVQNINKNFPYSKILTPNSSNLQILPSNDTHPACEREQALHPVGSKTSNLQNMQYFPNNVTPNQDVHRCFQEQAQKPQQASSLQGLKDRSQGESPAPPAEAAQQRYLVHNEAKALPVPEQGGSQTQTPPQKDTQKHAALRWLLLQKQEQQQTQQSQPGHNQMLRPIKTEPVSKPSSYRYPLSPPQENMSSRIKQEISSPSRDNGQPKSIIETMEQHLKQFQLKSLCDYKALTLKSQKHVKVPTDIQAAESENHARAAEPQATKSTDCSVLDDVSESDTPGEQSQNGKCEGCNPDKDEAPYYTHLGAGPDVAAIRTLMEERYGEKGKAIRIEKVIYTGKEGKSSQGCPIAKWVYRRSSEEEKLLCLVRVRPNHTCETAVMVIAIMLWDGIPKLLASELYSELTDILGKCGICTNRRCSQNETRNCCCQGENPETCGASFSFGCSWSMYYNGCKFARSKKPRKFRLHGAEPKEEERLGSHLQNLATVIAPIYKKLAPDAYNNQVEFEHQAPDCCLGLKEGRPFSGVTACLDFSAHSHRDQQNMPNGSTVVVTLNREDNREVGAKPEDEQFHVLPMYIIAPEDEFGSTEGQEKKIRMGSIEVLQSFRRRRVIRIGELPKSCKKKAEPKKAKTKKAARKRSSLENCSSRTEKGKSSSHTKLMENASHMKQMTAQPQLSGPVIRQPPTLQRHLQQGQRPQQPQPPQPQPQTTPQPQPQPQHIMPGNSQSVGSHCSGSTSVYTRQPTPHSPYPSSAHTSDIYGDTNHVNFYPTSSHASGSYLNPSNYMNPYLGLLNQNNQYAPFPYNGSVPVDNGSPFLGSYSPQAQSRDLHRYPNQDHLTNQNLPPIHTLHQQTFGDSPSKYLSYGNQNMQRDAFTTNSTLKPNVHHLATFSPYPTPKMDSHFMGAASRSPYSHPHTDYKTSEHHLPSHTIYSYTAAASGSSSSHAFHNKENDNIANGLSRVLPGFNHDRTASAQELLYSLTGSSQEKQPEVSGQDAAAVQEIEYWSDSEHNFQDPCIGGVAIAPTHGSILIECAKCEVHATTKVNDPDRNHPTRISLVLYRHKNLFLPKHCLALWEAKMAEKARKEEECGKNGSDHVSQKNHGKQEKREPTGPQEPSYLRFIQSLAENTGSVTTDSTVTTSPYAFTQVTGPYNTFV
UniProt P53566: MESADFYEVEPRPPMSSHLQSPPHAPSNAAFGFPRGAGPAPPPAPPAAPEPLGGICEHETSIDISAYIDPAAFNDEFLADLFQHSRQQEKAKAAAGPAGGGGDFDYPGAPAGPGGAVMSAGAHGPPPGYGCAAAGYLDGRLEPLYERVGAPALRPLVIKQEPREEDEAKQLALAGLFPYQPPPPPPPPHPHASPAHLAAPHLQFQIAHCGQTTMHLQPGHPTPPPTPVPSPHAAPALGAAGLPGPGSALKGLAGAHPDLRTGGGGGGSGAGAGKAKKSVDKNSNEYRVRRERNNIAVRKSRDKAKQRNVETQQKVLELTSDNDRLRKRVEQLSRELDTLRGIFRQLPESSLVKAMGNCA

Target: Ten-eleven translocation (TET) 2 (mouse (endogenous in eWAT adipocytes of C57BL/6J mice)) (UniProt Q4JK59)
Assay: co-IP; endogenous proteins in eWAT adipocytes from 8 week-old ND-fed C57BL/6J mice; Pierce Crosslink Magnetic IP/Co-IP Kit; immunoprecipitation with 10 μg of anti-TET2, anti-C/EBPα or rabbit IgG antibody; immunoprecipitates and input analysed by Western blot

C/EBPα (from UniProt P53566 1-359)
binding: binds
